Laboratory results taken from PMC12375107 (Cell Death & Disease, 2025).

Protein sequences, listed by entry. Tags and fused reporters are not part of them.
UniProt Q86WV6: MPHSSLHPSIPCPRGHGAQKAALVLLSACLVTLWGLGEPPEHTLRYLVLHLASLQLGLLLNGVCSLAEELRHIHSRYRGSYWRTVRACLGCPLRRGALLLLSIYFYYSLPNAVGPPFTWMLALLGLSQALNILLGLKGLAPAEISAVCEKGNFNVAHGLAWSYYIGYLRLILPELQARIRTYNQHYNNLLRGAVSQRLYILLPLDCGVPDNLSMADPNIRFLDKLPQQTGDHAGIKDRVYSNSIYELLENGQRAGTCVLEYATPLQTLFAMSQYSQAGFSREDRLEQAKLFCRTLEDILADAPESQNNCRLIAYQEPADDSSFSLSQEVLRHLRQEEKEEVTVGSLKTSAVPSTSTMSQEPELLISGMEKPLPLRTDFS

Target: T1, Flag-tagged CAD (caspase-activated DNase) (human) (UniProt O76075)
T1 sequence: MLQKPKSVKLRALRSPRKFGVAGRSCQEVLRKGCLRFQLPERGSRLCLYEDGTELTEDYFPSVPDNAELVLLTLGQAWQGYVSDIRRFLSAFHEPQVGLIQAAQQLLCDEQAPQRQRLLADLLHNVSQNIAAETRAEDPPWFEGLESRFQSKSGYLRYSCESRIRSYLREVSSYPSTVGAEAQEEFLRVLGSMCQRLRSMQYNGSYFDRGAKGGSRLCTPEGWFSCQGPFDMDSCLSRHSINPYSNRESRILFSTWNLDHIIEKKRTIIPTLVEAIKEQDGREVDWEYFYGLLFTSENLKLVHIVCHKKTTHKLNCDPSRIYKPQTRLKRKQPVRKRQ
Experiment: affinity purification with mass spectrometry; Flag-CAD stably overexpressed in HCT116; lysate on anti-Flag magnetic beads at 4 °C overnight; elution with 0.1 M glycine HCl pH 3.0; SDS-PAGE, silver staining, in-gel tryptic digestion, LC-MS/MS

binding: binds
Substance: endogenous STING (from UniProt Q86WV6 1-379)

Results are given in words; binding and its absence hold for the method and conditions named. In cells and extracts the contact can be indirect. These calls come from enrichment with a bait or labelling near it, and not all partners need be listed. Where a sequence is shown, tags or fusion partners need not be part of it.
